Measured values as given in article PMC10206301.
No constants are given. Whether binding was seen depends on the method and setting. Binding seen in cells or lysates may run through a third protein. These calls come from enrichment with a bait or labelling near it, and not all partners need be listed. Where a sequence is shown, tags or fusion partners need not be part of it. Blank lines part the entries; values can stand above or below the molecule they belong to.

Protein sequences, listed by entry. Tags and fused reporters are not part of them. Lines headed by an entry give the natural chain unless they say otherwise; changes in a name come on top. Residues count along the entry.
UniProt Q9Z1R2: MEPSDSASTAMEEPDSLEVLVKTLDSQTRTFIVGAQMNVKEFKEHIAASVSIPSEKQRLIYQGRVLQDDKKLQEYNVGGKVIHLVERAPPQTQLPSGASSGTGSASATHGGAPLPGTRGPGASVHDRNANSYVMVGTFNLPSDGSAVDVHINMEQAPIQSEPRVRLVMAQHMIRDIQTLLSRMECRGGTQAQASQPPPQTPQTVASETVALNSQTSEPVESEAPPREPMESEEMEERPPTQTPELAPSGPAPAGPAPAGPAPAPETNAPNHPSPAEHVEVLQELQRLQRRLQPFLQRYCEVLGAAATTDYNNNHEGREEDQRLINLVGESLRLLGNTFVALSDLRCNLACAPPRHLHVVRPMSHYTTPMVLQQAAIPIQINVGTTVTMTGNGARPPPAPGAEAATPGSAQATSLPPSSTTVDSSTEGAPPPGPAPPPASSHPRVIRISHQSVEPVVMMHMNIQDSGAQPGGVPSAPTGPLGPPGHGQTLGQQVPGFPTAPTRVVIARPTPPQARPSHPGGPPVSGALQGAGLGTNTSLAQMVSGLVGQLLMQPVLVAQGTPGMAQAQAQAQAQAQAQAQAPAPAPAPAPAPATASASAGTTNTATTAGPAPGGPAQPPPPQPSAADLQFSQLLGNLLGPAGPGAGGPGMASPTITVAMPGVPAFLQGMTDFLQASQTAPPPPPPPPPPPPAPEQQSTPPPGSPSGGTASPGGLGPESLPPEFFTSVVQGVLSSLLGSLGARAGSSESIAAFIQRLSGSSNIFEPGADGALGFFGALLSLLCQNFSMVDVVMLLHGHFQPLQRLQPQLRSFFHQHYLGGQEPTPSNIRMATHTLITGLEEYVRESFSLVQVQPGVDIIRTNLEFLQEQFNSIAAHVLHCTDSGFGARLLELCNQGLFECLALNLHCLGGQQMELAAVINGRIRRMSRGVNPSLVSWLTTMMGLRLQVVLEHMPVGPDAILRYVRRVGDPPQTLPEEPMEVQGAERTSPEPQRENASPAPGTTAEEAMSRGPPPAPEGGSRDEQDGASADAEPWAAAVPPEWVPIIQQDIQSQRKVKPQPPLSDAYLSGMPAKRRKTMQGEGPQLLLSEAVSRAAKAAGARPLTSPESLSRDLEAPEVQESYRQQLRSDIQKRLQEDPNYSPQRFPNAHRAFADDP
UniProt P99026: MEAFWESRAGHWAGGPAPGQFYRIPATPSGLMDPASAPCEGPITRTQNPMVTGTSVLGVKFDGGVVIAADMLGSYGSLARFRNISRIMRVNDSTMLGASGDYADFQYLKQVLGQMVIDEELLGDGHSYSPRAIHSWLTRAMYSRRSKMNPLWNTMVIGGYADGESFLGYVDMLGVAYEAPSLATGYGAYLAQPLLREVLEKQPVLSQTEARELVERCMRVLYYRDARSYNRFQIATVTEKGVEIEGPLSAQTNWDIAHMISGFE
UniProt O54965, residues 35-381: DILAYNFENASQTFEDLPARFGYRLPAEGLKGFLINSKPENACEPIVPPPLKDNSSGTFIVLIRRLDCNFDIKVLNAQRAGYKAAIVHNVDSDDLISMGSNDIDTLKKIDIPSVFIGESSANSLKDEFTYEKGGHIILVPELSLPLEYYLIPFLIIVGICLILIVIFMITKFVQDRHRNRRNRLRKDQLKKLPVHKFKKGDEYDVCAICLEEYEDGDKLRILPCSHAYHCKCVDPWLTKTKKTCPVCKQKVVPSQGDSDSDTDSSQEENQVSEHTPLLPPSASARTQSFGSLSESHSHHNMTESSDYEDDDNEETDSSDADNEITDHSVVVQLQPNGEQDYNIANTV
UniProt P43404: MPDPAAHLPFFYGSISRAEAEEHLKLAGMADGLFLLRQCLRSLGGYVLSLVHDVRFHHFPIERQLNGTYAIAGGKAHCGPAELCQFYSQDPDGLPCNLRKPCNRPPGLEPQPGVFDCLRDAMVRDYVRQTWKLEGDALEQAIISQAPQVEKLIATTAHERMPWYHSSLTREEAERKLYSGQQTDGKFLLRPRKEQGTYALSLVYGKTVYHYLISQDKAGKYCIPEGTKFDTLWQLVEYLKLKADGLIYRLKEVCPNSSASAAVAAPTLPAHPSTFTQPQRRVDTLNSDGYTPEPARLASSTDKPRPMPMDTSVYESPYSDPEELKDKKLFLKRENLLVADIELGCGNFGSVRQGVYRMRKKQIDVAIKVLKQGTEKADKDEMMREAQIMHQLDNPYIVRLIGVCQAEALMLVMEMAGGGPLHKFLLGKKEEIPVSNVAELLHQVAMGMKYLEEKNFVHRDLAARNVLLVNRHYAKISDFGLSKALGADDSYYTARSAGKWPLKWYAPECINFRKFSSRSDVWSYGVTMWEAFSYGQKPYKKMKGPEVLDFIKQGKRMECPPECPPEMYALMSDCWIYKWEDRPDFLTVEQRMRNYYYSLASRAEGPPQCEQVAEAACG

What was measured:
[1] = target: T1, His-tagged hCCDC134 (recombinant eukaryotic human coiled-coil domain containing 134) (human) (UniProt Q9H6E4); experiment: affinity purification with mass spectrometry; 5 mg precleared lysate of mouse splenic cells (stimulated with anti-CD3 and anti-CD28 for 24 h) incubated with purified His-tagged mCCDC134, hCCDC134 or control protein (His-tagged human Igκ) at 4°C for 2 h, captured on anti-His magnetic beads; washed six times in 50 mM Tris-HCl pH 7.5, 150 mM NaCl, 0.5% NP-40, 1 mM EDTA; gel regions analysed by LC-MS/MS; proteins also found in the control regarded as nonspecific; only the target purified
T1 sequence: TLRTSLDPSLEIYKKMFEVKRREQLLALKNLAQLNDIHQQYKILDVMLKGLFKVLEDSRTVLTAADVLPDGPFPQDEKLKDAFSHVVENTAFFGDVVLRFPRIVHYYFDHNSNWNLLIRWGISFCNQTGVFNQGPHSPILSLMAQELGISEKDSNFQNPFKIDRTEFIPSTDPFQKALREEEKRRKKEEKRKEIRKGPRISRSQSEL

[2] = target: T2, His-tagged mCCDC134 (recombinant eukaryotic mouse coiled-coil domain containing 134) (mouse) (UniProt Q8C7V8); experiment: as above
T2 sequence: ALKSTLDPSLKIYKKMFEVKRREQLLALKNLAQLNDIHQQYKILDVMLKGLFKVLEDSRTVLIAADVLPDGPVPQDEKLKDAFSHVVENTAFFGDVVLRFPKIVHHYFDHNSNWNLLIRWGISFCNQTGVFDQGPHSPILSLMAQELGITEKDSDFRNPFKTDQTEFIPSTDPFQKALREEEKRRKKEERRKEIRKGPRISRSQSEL

Molecule: BCL2-associated athanogene 6 (Bag6) (from UniProt Q9Z1R2 1-1154)
binding [1]: binds
binding [2]: binds

Molecule: proteasome subunit beta type-4 (Psmb4) (from UniProt P99026)
binding [1]: binds
binding [2]: binds

More lines, now with the values ahead:

binding [1]: binds
binding [2]: binds
Molecule: 60S ribosomal protein L14 (from UniProt Q9CR57 1-217)

binding [1]: binds
binding [2]: binds
Molecule: E3 ubiquitin-protein ligase (RNF13) (from UniProt O54965 35-381)

binding [1]: binds
binding [2]: binds
Molecule: Zap70 (endogenous, mouse splenic cell lysate) (from UniProt P43404 1-618)

binding [1]: binds
binding [2]: binds
B1: Perforin-1 (Prf1) (protein, UniProt P10820 21-554)
chain: PCYTATRSECKQKHKFVPGVWMAGEGMDVTTLRRSGSFPVNTQRFLRPDRTCTLCKNSLMRDATQRLPVAITHWRPHSSHCQRNVAAAKVHSTEGVAREAAANINNDWRVGLDVNPRPEANMRASVAGSHSKVANFAAEKTYQDQYNFNSDTVECRMYSFRLVQKPPLHLDFKKALRALPRNFNSSTEHAYHRLISSYGTHFITAVDLGGRISVLTALRTCQLTLNGLTADEVGDCLNVEAQVSIGAQASVSSEYKACEEKKKQHKMATSFHQTYRERHVEVLGGPLDSTHDLLFGNQATPEQFSTWTASLPSNPGLVDYSLEPLHTLLEEQNPKREALRQAISHYIMSRARWQNCSRPCRSGQHKSSHDSCQCECQDSKVTNQDCCPRQRGLAHLVVSNFRAEHLWGDYTTATDAYLKVFFGGQEFRTGVVWNNNNPRWTDKMDFENVLLSTGGPLRVQVWDADYGWDDDLLGSCDRSPHSGFHEVTCELNHGRVKFSYHAKCLPHLTGGTCLEYAPQGLLGDPPGNRSGAVW
